No constants are given. Whether binding was seen depends on the method and setting. For some of these results: In cells and extracts the contact can be indirect. Some entries that bind do so weakly or less than the wild type. Tags and fused reporters may be left off the sequences shown.

We go through four molecules from publication PMC10167121, “Completing the TRB family: newly characterized members show ancient evolutionary origins and distinct localization, yet similar interactions”.

In assay [1] the target is Telomere repeat binding protein 1 (TRB1), yeast two-hybrid fusion (A. thaliana) (UniProt Q8VWK4). The experiment in a line: two-hybrid; Matchmaker GAL4-based system, S. cerevisiae PJ69-4a; growth on SD -Leu -Trp -His (with or without 1 mM or 3 mM 3-AT) or SD -Leu -Trp -Ade at 30 °C; empty vector as negative control.
In assay [2] the target is T1, TRB1 fused with nYFP or cYFP (BiFC construct) (A. thaliana) (UniProt Q8VWK4).
T1 sequence: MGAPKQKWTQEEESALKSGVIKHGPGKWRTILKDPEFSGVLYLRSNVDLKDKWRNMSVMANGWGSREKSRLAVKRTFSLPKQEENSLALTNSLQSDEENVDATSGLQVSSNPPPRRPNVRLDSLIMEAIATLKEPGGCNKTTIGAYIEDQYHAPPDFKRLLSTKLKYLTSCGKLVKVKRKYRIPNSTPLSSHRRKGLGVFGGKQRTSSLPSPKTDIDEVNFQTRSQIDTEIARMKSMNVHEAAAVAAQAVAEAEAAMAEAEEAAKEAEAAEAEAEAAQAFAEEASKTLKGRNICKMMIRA
The experiment in a line: split reporter; BiFC with nYFP/cYFP fusions from pBiFCt-2in1 vectors (internal marker mRFP1), transient Agrobacterium-mediated expression in N. benthamiana leaf epidermal cells, confocal microscopy.

Assay [3] addresses T2, TRB2 fused with nYFP or cYFP (BiFC construct) (A. thaliana) (UniProt Q9FJW5).
T2 sequence: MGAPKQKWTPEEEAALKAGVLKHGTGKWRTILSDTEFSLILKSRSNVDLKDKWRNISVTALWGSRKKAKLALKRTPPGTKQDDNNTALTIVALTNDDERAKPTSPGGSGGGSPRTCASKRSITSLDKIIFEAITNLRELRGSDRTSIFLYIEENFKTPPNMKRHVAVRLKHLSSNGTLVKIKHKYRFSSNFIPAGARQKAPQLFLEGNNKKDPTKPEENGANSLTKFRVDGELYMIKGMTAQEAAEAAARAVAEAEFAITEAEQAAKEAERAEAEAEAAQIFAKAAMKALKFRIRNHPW
The assay is described as above.

For assay [4], the target named is TRB3 fused with nYFP or cYFP (BiFC construct) (A. thaliana) (UniProt Q9M2X3). Described as above.

B1: Telomere repeat binding protein 1 (TRB1), yeast two-hybrid fusion (protein, UniProt Q8VWK4 1-300)
chain: MGAPKQKWTQEEESALKSGVIKHGPGKWRTILKDPEFSGVLYLRSNVDLKDKWRNMSVMANGWGSREKSRLAVKRTFSLPKQEENSLALTNSLQSDEENVDATSGLQVSSNPPPRRPNVRLDSLIMEAIATLKEPGGCNKTTIGAYIEDQYHAPPDFKRLLSTKLKYLTSCGKLVKVKRKYRIPNSTPLSSHRRKGLGVFGGKQRTSSLPSPKTDIDEVNFQTRSQIDTEIARMKSMNVHEAAAVAAQAVAEAEAAMAEAEEAAKEAEAAEAEAEAAQAFAEEASKTLKGRNICKMMIRA
With B1, the binding result in assay [1] is “binds”.

B2: TRB1 fused with nYFP or cYFP (BiFC construct) (protein, UniProt Q8VWK4 1-300)
chain: MGAPKQKWTQEEESALKSGVIKHGPGKWRTILKDPEFSGVLYLRSNVDLKDKWRNMSVMANGWGSREKSRLAVKRTFSLPKQEENSLALTNSLQSDEENVDATSGLQVSSNPPPRRPNVRLDSLIMEAIATLKEPGGCNKTTIGAYIEDQYHAPPDFKRLLSTKLKYLTSCGKLVKVKRKYRIPNSTPLSSHRRKGLGVFGGKQRTSSLPSPKTDIDEVNFQTRSQIDTEIARMKSMNVHEAAAVAAQAVAEAEAAMAEAEEAAKEAEAAEAEAEAAQAFAEEASKTLKGRNICKMMIRA
Take B2: the binding result in assay [2] was “binds”.

B3: TRB3 fused with nYFP or cYFP (BiFC construct) (protein, UniProt Q9M2X3 1-295)
chain: MGAPKLKWTPEEETALKAGVLKHGTGKWRTILSDPVYSTILKSRSNVDLKDKWRNISVTALWGSRKKAKLALKRTPLSGSRQDDNATAITIVSLANGDVGGQQIDAPSPPAGSCEPPRPSTSVDKIILEAITSLKRPFGPDGKSILMYIEENFKMQPDMKRLVTSRLKYLTNVGTLVKKKHKYRISQNYMAEGEGQRSPQLLLEGNKENTPKPEENGVKNLTKSQVGGEVMIMGMTEKEAAAAAARAVAEAEFAMAEAEEAAREADKAEAEAEAAHIFAKAAMKAVKYRMHSQTR
With B3, the binding entry in assay [2], in assay [3] and in assay [4] was “binds” each time.

B4: TRB2 fused with nYFP or cYFP (BiFC construct) (protein, UniProt Q9FJW5 1-299)
chain: MGAPKQKWTPEEEAALKAGVLKHGTGKWRTILSDTEFSLILKSRSNVDLKDKWRNISVTALWGSRKKAKLALKRTPPGTKQDDNNTALTIVALTNDDERAKPTSPGGSGGGSPRTCASKRSITSLDKIIFEAITNLRELRGSDRTSIFLYIEENFKTPPNMKRHVAVRLKHLSSNGTLVKIKHKYRFSSNFIPAGARQKAPQLFLEGNNKKDPTKPEENGANSLTKFRVDGELYMIKGMTAQEAAEAAARAVAEAEFAITEAEQAAKEAERAEAEAEAAQIFAKAAMKALKFRIRNHPW
As to B4, the binding entry in assay [2] and in assay [3] was “binds” in each case.
